In PubChem BioAssay AID2417 (National Center for Advancing Translational Sciences (NCATS), 2010):
The whole screen tested about 140,000 compounds, of which about 4,300 (3.1%) were called active. This list was built around the results that the source calls inconclusive (neither active nor inactive); the mix of calls is not that of the screen.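 Rule for the calls: active = readout at or below -70, meaning at least 70% loss of cells showing the perinucleolar compartment, a nuclear body marking cancer cells; inconclusive = readout between -30 and a set limit; inactive = the rest.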

Assay: High Content Assay for Compounds that inhibit the Assembly of the Perinucleolar Compartment;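 note: plate controls were DMSO wells for no effect and camptothecin positive control wells for full effect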
Settings: PC3M PTB-GFP, PNC prevalence imaging, 16 h; at 10 µM; stronger effect = lower value
In short: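 PC3M cells stably expressing PTB-GFP, 750–1000 cells/well, treated 16 h at 37 °C with compound (23 nl of library stock), in duplicate. After paraformaldehyde fixation and Hoechst stain, imaged at 20x; PNC prevalence scored by image analysis.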

| Compound | activity change (PNC), negative = inhibition |
| --- | --- |
| O=C(c1cnn2c(C(F)(F)F)cc(-c3ccccc3)nc12)N1CCOCC1 | inconclusive: -38.8% |
| CCCCOC(=O)Nc1ccc(N(C)C)cc1 | inconclusive: -44.4% |
| COc1ccc(NC(=S)NN(C)C(=S)Nc2ccc(OC)cc2)cc1 | active: -114% |
| Cc1ccc2nc(/C(C#N)=C\c3ccc(Oc4ccc([N+](=O)[O-])cn4)cc3)[nH]c2c1 | inactive: 36.9% |
| O=C(N/N=C/c1cn(Cc2ccccc2)c2ccccc12)c1cccnc1 | inactive: -26.2% |
| CCN(CC)C(=O)CSc1nc2ccc(NC(=O)CSc3nnc(N)s3)cc2s1 | active: -100% |
| N#Cc1nc(Cc2cccc3ccccc23)oc1NCCN1CCOCC1 | inconclusive: -31.4% |
| CSc1ncccc1C(=O)OCc1ccc(COC(=O)c2cccnc2SC)cc1 | active: -108% |
| CCOC(=O)C1CCCN(C(=O)c2cc3ncc(Br)cn3n2)C1 (stereo unspecified) | inactive: 6.97% |
| CC(C)Cn1c(SCC(=O)NCc2ccc(Cl)cc2)nnc1-c1cccc(S(=O)(=O)N2CCOCC2)c1 | inactive: 2.54% |
| O=C(O)c1ccc(C2CCCCC2)cn1 | inconclusive: -36.9% |
| c1ccc2c(NC3CCCC3)nnc(NC3CCCC3)c2c1 | inconclusive: -44% |
| O=C(CN1C(=O)c2ccccc2C1=O)NCC(=O)OCC(=O)c1ccc(Cl)cc1 | inconclusive: -50.5% |
| COc1ccc(CCNC(=O)C2CCCN(C(=O)N(C)C)C2)c(OC)c1 (stereo unspecified) | inconclusive: -31.1% |
| CCOc1cccc2cc(C(=O)N3CCc4ccccc43)c(=O)oc12 | inconclusive: -62.1% |
| Cc1ccc(S(=O)(=O)NC(=O)Nn2c(C)nnc2C)cc1 | active: -80.4% |
| CC(C)OCCCNC(=O)C1CCC(CNS(=O)(=O)c2ccccc2)CC1 (stereo unspecified) | inactive: 6.99% |
| Cn1nc(-c2ccccc2)c(C(O)c2ccccc2C(F)(F)F)c1Cl (stereo unspecified) | inconclusive: -52.1% |
| Fc1cccc(Nc2nc3ccccc3n3nnnc23)c1 | inconclusive: -77.8% |
| Cc1ccc(CS(=O)(=O)CCC(=O)NCc2cccs2)cc1 | inconclusive: -58.2% |
| Cc1cc(/C=N/NC(=O)Cn2c3ccccc3c(=O)c3ccccc32)c(C)n1-c1ccc(Cl)cc1 | active: -87.9% |
| Cc1ccc(N/N=C2/CCCNC2=O)cc1 | inactive: -6.02% |
| Cc1c(NC(=O)C(C)Sc2ccccc2)c(=O)n(-c2ccccc2)n1C (stereo unspecified) | inconclusive: -61.5% |

Laid out differently: two of the compounds above.
Compound,"activity change (PNC), negative = inhibition"
Cc1cc(/C=N/NC(=O)Cn2c3ccccc3c(=O)c3ccccc32)c(C)n1-c1ccc(Cl)cc1,active: -87.9%
Cc1ccc(N/N=C2/CCCNC2=O)cc1,inactive: -6.02%

Next part

| Compound | activity change (PNC), negative = inhibition |
| --- | --- |
| Cc1cccc(NC(=O)NCCN2C(=O)C3C4C=CC(C4)C3C2=O)c1 (stereo unspecified) | inconclusive: -68.9% |
| CCn1c(Cn2nnc(-c3ccccc3)n2)nnc1SCC(=O)N1CCOCC1 | inconclusive: -46.1% |
| Cn1ccc(C(=O)Nc2ccc(Br)cc2Br)n1 | inactive: 15.5% |
| CSc1nc(N2CCCC2)c2c(c1C#N)CC(C)(C)OC2 | inconclusive: -52.9% |
| CC(C)(C)NC(=O)CSc1nc2ccc(NC(=O)CSc3nnc(N)s3)cc2s1 | inconclusive: -41.8% |
| O=C1C2C3C=CC(C3)C2C(=O)N1c1ccc2ccccc2n1 (stereo unspecified) | inconclusive: -62.1% |
| CC(C(=O)Nc1ccccc1C(=O)N1CCOCC1)N(c1ccccc1)S(C)(=O)=O (stereo unspecified) | inconclusive: -37.1% |
| COc1ccc(C2NC(=O)c3sc4nc(C)c(C(C)=O)c(-c5ccc(Cl)cc5)c4c3N2)cc1 (stereo unspecified) | inactive: 28.4% |
| Cc1cc(C(=O)N/N=C/c2cccnc2)cs1 | active: -114% |
| Cc1nc2oc(C(=O)c3ccc(Br)cc3)c(N)c2c2c1COC(C)(C)C2 | inconclusive: -56.2% |
| COc1ccc(-c2noc(CCC(=O)NC3CCCCC3)n2)cc1OC | inactive: -1.03% |
| CCCCC(=O)N=c1sc2cc(S(C)(=O)=O)ccc2n1C | inconclusive: -30.7% |
| Cc1cc(C)cc(C(=O)NC(=S)Nc2ccc(-c3cc4ccccc4oc3=O)cc2)c1 | inconclusive: -42.9% |
| COc1cccc(/C=N/NC(=O)c2cc3c(OC)c(OC)ccc3[nH]2)c1OC | active: -83.6% |
| CCCNc1nc(NCC)nc(OC)n1 | inconclusive: -37.7% |
| COc1ccc(S(=O)(=O)Nc2nnc(C(C)(C)C)s2)cc1 | inconclusive: -37.2% |
| COc1ccc(C(=O)NC(=S)Nc2ccc3oc(=O)ccc3c2)cc1 | inactive: 8.74% |
| Cc1cccc(N(CC(=O)O)CC(=O)O)c1 | inconclusive: -38.1% |
| COC(=O)C(C(=O)Nc1ccc(OC)cc1)C1CCCCCC1 (stereo unspecified) | active: -80.8% |
| COc1ccc(NC(=O)CCc2c(C)nc3nc(C)nn3c2C)cc1 | inconclusive: -37.8% |
| CCOC(=O)N1CCC(=NNC(=O)c2ccc(O)cc2)CC1 | inconclusive: -46.7% |
| N/C(=N\OC(=O)CCCCCN1C(=O)c2ccccc2C1=O)c1ccccc1 | inconclusive: -47.3% |
| O=C(Nc1ccc(-c2cn3ccsc3n2)cc1)C1COc2ccccc2O1 (stereo unspecified) | active: -94.5% |

| Compound | activity change (PNC), negative = inhibition |
| --- | --- |
| O=C1c2ccccc2C(=O)N1CCSc1n[nH]c(=S)s1 | inactive: -9.47% |
| O=C(CSc1nnc2c3ccccc3c3ccccc3c2n1)Nc1ccccc1 | inactive: 65% |
| O=c1cc(Nc2ccc3c(c2)OCCO3)[nH]c(=O)n1Cc1ccc(F)cc1 | inconclusive: -40.6% |
| O=C(NCc1cccc(F)c1)c1noc2c1CCCC2 | inconclusive: -34.5% |
| CCOC(=O)C(C(C)=O)C(c1ccc(OC)cc1)C(C(C)=O)C(=O)OCC (stereo unspecified) | inconclusive: -71.4% |
| O=C(CSc1nc(-c2ccccc2)cc(C(F)(F)F)n1)N1CCOCC1 | inconclusive: -73.8% |
| CCCCCn1c(Sc2nc3ccccc3s2)nc2c1c(=O)[nH]c(=O)n2C | inactive: 23.4% |
| CC1CC(C)CN(S(=O)(=O)c2ccc(C(=O)Nc3nnc(-c4cccs4)o3)cc2)C1 (stereo unspecified) | inactive: 31.7% |
| Cc1cc(=O)n2nc(N3CCCC3C(=O)NCCCN3CC(C)CC(C)C3)sc2n1 (stereo unspecified) | inconclusive: -33% |
| O=C1CC(c2cccc([N+](=O)[O-])c2)c2c(ccc3ccccc23)N1 (stereo unspecified) | inconclusive: -45.6% |
| O=S(=O)(c1ccc(S(=O)(=O)N(Cc2cccs2)CC2CCCO2)cc1)N1CCCCC1 (stereo unspecified) | inconclusive: -52.4% |
| CCOC(=O)Cn1c(=O)oc2cc(S(=O)(=O)Nc3cccc(C)c3)ccc21 | inconclusive: -57.8% |
| CC/C(=N\NC(=O)c1ccccc1Cl)c1ccc(Br)s1 | inconclusive: -52.9% |
| Cc1ccc(NC(=O)N2CCC(c3nc4c(nnn4Cc4cccc(Cl)c4)c(=O)[nH]3)CC2)cc1 | inconclusive: -59.4% |
| COc1cccc(N(C(=O)CNC(=O)c2ccco2)C(C(=O)NC2CCCCC2)c2ccncc2)c1 (stereo unspecified) | inactive: -6.29% |
| CSc1nc2ccc(NS(=O)(=O)c3ccccc3F)cc2s1 | inactive: -9.16% |
| CCc1ccccc1OCc1nnc(N)s1 | inconclusive: -64.4% |
| CCOC(=O)c1c(OCC)[nH]c2c1cc(O)c1ccccc12 | inactive: 17.3% |
| CN1CCN(CCC(=O)N2c3ccccc3Sc3ccc(Cl)cc32)CC1 | inconclusive: -49.7% |
| CCOc1ccc(OCCN(C)Cc2ccccc2)cc1 | inconclusive: -31.6% |
| COC(=O)c1ccc(NC(=O)CSc2ccccc2)cc1 | inactive: 11.1% |
| Cc1ccc(S(=O)(=O)NC(CC(=O)N2CCOCC2)c2ccco2)cc1 (stereo unspecified) | active: -90.9% |
| CCOC(=O)c1ccoc1CSCC(=O)N1CCN(S(=O)(=O)c2ccc(C)cc2)CC1 | inconclusive: -61.8% |

A few values from the results shown:
Value for CCOC(=O)c1c(OCC)[nH]c2c1cc(O)c1ccccc12 under activity change (PNC), negative = inhibition: inactive: 17.3%
Value for Cc1ccc(N/N=C2/CCCNC2=O)cc1 under activity change (PNC), negative = inhibition: inactive: -6.02%
Value for CCOC(=O)c1ccoc1CSCC(=O)N1CCN(S(=O)(=O)c2ccc(C)cc2)CC1 under activity change (PNC), negative = inhibition: inconclusive: -61.8%

More structures follow.

| Compound | activity change (PNC), negative = inhibition |
| --- | --- |
| CCC(=O)Nc1ccc2oc(-c3cccc(C)c3)nc2c1 | inconclusive: -46.9% |
| CCOc1ccccc1NC(=O)c1ccccc1NS(C)(=O)=O | inconclusive: -50.3% |
| Cc1cc(C)nc(NC(=O)CSc2nc3cc(Cl)ccc3s2)n1 | inconclusive: -67.7% |
| Cc1ccc(Cl)cc1N1CCN(C(=O)C2CCN(S(=O)(=O)c3c(C)nn(C)c3C)CC2)CC1 | inconclusive: -48.1% |
| O=C(c1cccn(Cc2ccc(Cl)c(Cl)c2)c1=O)N1CCOCC1 | inconclusive: -58.7% |
| OCC1OC(n2nnc3ccccc32)C(O)C(O)C1O (stereo unspecified) | inconclusive: -64.5% |
| COc1ccc2nc(NC(=O)CSc3nnc(N)s3)sc2c1 | inconclusive: -38.2% |
| CC(=O)Nc1c(O)nc(SCC(=O)Nc2cccc(C)c2)[nH]c1=O | inconclusive: -40.1% |
| CC(C)(C)C(=O)Nc1ccccc1C(=O)NCc1ccco1 | active: -138% |
| COc1ccc(Cc2nnc(NS(C)(=O)=O)s2)cc1 | inactive: -27.1% |
| Cc1ccc(NC(=O)c2cc(S(=O)(=O)NCCC3=CCCCC3)ccc2F)cc1F | inconclusive: -30.1% |
| Cc1cc(C)c(COCc2cc(/C=N/O)c(C)cc2C)cc1/C=N/O | inactive: -8.21% |
| CCOC(=O)CC(=O)CSc1nc2nc(C)cc(C)n2n1 | inconclusive: -43% |
| CCCS(=O)(=O)Nc1cc(C(F)(F)F)ccc1OCCOC | inactive: 14.1% |
| CCCS(=O)(=O)n1nc(-c2ccc(Br)cc2)cc1N | active: -119% |
| Cc1cc2oc(=O)cc(CN3CCOCC3)c2cc1C | inconclusive: -65.3% |
| O=C(O)CCSc1nnc(-c2cccnc2)n1-c1ccccc1 | inactive: 2.1% |
| Cc1cc(NS(=O)(=O)c2ccc(NC(=O)c3cc(-c4ccccc4Cl)nc4ccccc34)cc2)no1 | inactive: -16.8% |
| CCOc1ccc(/C=c2\sc3nc(-c4ccco4)nn3c2=O)cc1OCC | inconclusive: -46.8% |
| O=C(Nc1ccc(F)cc1)c1ccc(COc2ccccc2)cc1 | inconclusive: -45.2% |
| Cn1c(SCC(=O)N/N=C/c2cccs2)nc2ccccc21 | inactive: 12% |
| COCCOC(=O)C1=C(N)OC2=C(C(=O)CCC2)C1c1cccnc1 (stereo unspecified) | inconclusive: -47.7% |
